Literature values, collected in patent US20090170886A1 (Pfizer Inc, priority 2005, published 2009).
At least one structure is not confirmed: it was looked up by name or label, or the drawing left a doubt.

Experiments:
hair growth = conditions: 83 males, topical solution of 3% minoxidil, 19 months; cited from earlier work
hair re-growth = conditions: Tosti, Dermatologica 1986; cited from earlier work

Nc1cc(N2CCCCC2)nc(N)[n+]1[O-] [minoxidil, Minoxidil]
subjects in whom hair growth occurred (hair growth): 55%
subjects who considered the growth cosmetically relevant (hair growth): 20%
subjects with cosmetically acceptable re-growth (hair re-growth): 18.1%
